Literature values, collected in US20080119561A1, “METHODS FOR PREVENTING OR DELAYING CATHETER- BASED RESVASCULARIZATION” (Pfizer Inc, priority 1998, published 2008).
At least one compound was matched to its structure with a doubt left.

Test system: hyperlipidemic population
Details: cited from earlier work

CCC(C)(C)C(=O)O[C@H]1C[C@@H](C)C=C2C=C[C@H](C)[C@H](CC[C@@H]3C[C@@H](O)CC(=O)O3)[C@H]21 [Simvastatin, simvastatin]
reduction in cardiac mortality: 42%
reduction in total mortality: > 30%
